Experimental data: PubChem BioAssay AID652243 (Drosophila RNAi Screening Center, 2013)
In all, the deposit lists about 24,000 reagents; this is a random part of those that have a named target and a result. Of all reagents, 246 (1%) are marked active. 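Plates not normalised; calls are printed but the firefly/Renilla ratio behind them is not deposited; fold cut for lowering reported inconsistently.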 The raw values are shown without normalisation. A plus sign joins genes that one reagent is predicted to hit. The record does not give: the amount of reagent.

- Assay: 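Fly regulators of androgen-dependent reporter output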 (primary screen)
- System: Drosophila S2R+ cells
- Reagents: long dsRNA against Drosophila genes
- Time to read-out: 72 h (48 h, then 24 h hormone)
- Conditions: synthetic androgen R1881 at 10 nM for 24 h
- Read-out: 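Firefly light from an androgen-responsive reporter and Renilla control light per well, raw and unnormalised, for each of two replicates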
- Reading the numbers: firefly reporter light: higher = more light from androgen-responsive reporter; Renilla control light: higher = more constitutive control signal (cell number, transfection)
- Call rule: 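Hit when the log firefly-to-Renilla ratio dropped or increased by a fixed fold versus the mean of GFP or LacZ controls across duplicate plates; lowering cut given as 1.5 and as 3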
- Meaning of the calls: active = hit: reporter lowered or raised; inactive = no hit

target gene | dsRNA | firefly reporter light, replicate 1 | firefly reporter light, replicate 2 | Renilla control light, replicate 1 | Renilla control light, replicate 2 | Call
CG11227 | DRSC20476 | 2.22e5 | 1.18e5 | 5.82e5 | 2.86e5 | inactive
CG11227 | DRSC29906 | 9.25e5 | 8.76e5 | 1.67e6 | 1.77e6 | inactive
Hr38 (Hormone receptor-like in 38) | DRSC23230 | 7.52e5 | 7.64e5 | 8.30e5 | 1.01e6 | inactive
Hr38 (Hormone receptor-like in 38) | DRSC28077 | 5.18e5 | 5.59e5 | 1.22e6 | 8.94e5 | inactive
CG12133 | DRSC06108 | 2.98e5 | 2.62e5 | 1.42e6 | 1.74e6 | inactive
CG12133 | DRSC25602 | 1.05e6 | 8.25e5 | 1.07e6 | 1.05e6 | inactive
Nct (Nicastrin) | DRSC16172 | 72948 | 59695 | 5.60e5 | 3.84e5 | inactive
Ugt37E1 (UDP-glycosyltransferase family 37 member E1) | DRSC02248 | 2.20e5 | 2.29e5 | 2.43e6 | 2.58e6 | inactive
Ugt37E1 (UDP-glycosyltransferase family 37 member E1) | DRSC24769 | 3.59e5 | 3.35e5 | 1.38e6 | 5.73e5 | inactive
Cdc2rk (Cdc2-related kinase) | DRSC07590 | 1.99e5 | 2.06e5 | 1.23e6 | 1.50e6 | inactive
Cdc2rk (Cdc2-related kinase) | DRSC29758 | 4.71e5 | 3.02e5 | 1.72e6 | 1.66e6 | inactive
Cdc2rk (Cdc2-related kinase) | DRSC37021 | – | – | – | – | inactive
CG7271 + term | DRSC30034 | 8.94e5 | 9.14e5 | 1.63e6 | 1.63e6 | inactive
Cpr57A + Obp57d | DRSC06708 | 1.30e6 | 1.18e6 | 1.35e6 | 1.19e6 | inactive
Cpr57A + Obp57d | DRSC22719 | 6.56e5 | 8.55e5 | 1.67e6 | 1.34e6 | inactive
Rsf1 (Repressor splicing factor 1) | DRSC03423 | 2.63e5 | 2.79e5 | 1.48e6 | 1.87e6 | inactive
Rsf1 (Repressor splicing factor 1) | DRSC21953 | 8.21e5 | 6.90e5 | 1.85e6 | 1.38e6 | inactive
Rsf1 (Repressor splicing factor 1) | DRSC27444 | 2.54e5 | 2.78e5 | 6.15e5 | 6.38e5 | inactive
kibra | DRSC14533 | 1.89e5 | 1.33e5 | 3.02e6 | 2.86e6 | inactive
kibra | DRSC23283 | 7.79e5 | 8.46e5 | 9.84e5 | 1.17e6 | inactive
kibra | DRSC29376 | 3.35e5 | 4.47e5 | 8.62e5 | 8.62e5 | inactive
AstCC (Allatostatin double C) | DRSC02404 | 1.77e5 | 1.69e5 | 2.06e6 | 1.22e6 | inactive
Debcl (Death executioner Bcl-2) | DRSC04965 | 1.06e6 | 1.05e6 | 2.16e6 | 2.60e6 | inactive
Debcl (Death executioner Bcl-2) | DRSC30010 | 4.61e5 | 4.17e5 | 1.03e6 | 1.16e6 | inactive

3 consecutive records from above, for reference:
target gene | dsRNA | firefly reporter light, replicate 1 | firefly reporter light, replicate 2 | Renilla control light, replicate 1 | Renilla control light, replicate 2 | Call
Cdc2rk (Cdc2-related kinase) | DRSC29758 | 4.71e5 | 3.02e5 | 1.72e6 | 1.66e6 | inactive
Cdc2rk (Cdc2-related kinase) | DRSC37021 | – | – | – | – | inactive
CG7271 + term | DRSC30034 | 8.94e5 | 9.14e5 | 1.63e6 | 1.63e6 | inactive
